Consider 38 molecules from PubChem BioAssay AID2685 (National Center for Advancing Translational Sciences (NCATS), 2010).

SMILES strings stand for the structures. The list shows a part of the results. These are further read-outs of the screen, such as a control signal, another cell line or another target. No call is given for them. The list favours compounds with an active or inconclusive main result. Potencies come from curve fits of mixed quality, noted in brackets.

A short description of this test: qHTS Assay for Lipid Storage Modulators in Drosophila S3 Cells.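 For cell number change: cells counted by Cell Tracker Red CMTPX staining in the red channel.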 To be noted: BODIPY lipid droplet fluorescence, 18-24 h; for cell number change: measured here: cell count max response, cells fed with added oleic acid. The essentials:
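Drosophila S3 cells got compounds at several concentrations plus oleic acid (400 uM solution). Laser-scanning cytometry with 488 nm excitation read lipid droplets at 500-530 nm and cells at 575-640 nm. Percent activity was relative to 20 uM Triacsin C.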
Background: Quantitative high-throughput screening tests each substance at several concentrations.

Setting [1] is: measured here: lipid fluorescence (Fed channel) AC50, cells fed with added oleic acid.
Where [2] appears, read: measured here: cell number channel AC50, cells fed with added oleic acid.

As to `Cc1noc(C)c1C(=O)OCC(=O)Nc1c(F)cccc1F`, the cell number change was -22.6%.

For orientation: AC50 means the midpoint of the concentration-response curve, whichever way the signal moves. As for `O=C1c2ccccc2C(=O)N1CC1=NCCc2ccccc21`, the cell number change is -13.4%. In addition, the AC50 under setting [1] was 8.2 µM [rising, partial curve].

On to `NC(=O)CC(NC(=O)c1ccccc1)c1ccc(N2CCCCCC2)c([N+](=O)[O-])c1` (configuration not stated), for which the cell number change is 1.8%. Moreover, the AC50 under setting [1] is 0.517 µM [falling, single point].

In the case of `O=C(Nc1cccc2ccccc12)/C(=C/c1ccc([N+](=O)[O-])cc1)NC(=O)c1ccccc1`, the cell number change is -6.03%. Also, the AC50 under setting [1] is 4.61 µM [rising, single point].

Turning to `O=S(=O)(Nc1ccc(N2CCOCC2)cc1)c1ccc2ccccc2c1`, the cell number change is -93.5%. Also, the AC50 under setting [2] is 0.146 µM [falling, full curve, poor fit]. The AC50 under setting [1] was 0.82 µM [falling, partial curve].

In the case of `COc1ccc(C(C)NC(=O)C23CC4CC(CC(C4)C2)C3)cc1OC` (configuration not stated), the cell number change was -1.09%.

With `CC1Cc2ccccc2N1C(=O)CSc1nc2c(c(=O)n(C)c(=O)n2C)n1Cc1ccccc1` (configuration not stated), the AC50 reads like this: under setting [2], 0.058 µM [rising, partial curve]; under setting [1], 2.31 µM [rising, full curve].

Take `O=C(CS(=O)c1ccc(C(F)(F)F)cc1[N+](=O)[O-])Oc1ccc(Cl)cc1` (configuration not stated): the cell number change was -26.6%.

On to `Cc1ccc(C(=O)OCC(=O)NCc2ccc(F)cc2)o1`, for which the cell number change is -13.9%. The AC50 under setting [1] is 29.1 µM [falling, single point].

Consider `Cc1ccc(CNC(=O)CN(C(=O)N2CCN(C)CC2)S(=O)(=O)c2ccc(C)cc2)cc1`, for which the cell number change is -75%. Under setting [2], the AC50 is 1.64 µM [falling, partial curve].

`COc1ccc(S(=O)(=O)N(NC2=NS(=O)(=O)c3ccccc32)C(=O)C(C)C)cc1`: under setting [2], the AC50 was 0.00461 µM [falling, full curve, poor fit].

Regarding `COc1ccc(C(=O)NNC(=O)Cc2ccc(-c3ccccc3)cc2)cc1OC`, the cell number change was found to be 17.3%.

Consider `N#Cc1ccsc1NC(=O)C1CCCN1S(=O)(=O)c1cccs1` (configuration not stated), for which the cell number change is -69.1%. Besides, the AC50 under setting [2] was 29.1 µM [falling, single point].

As for `CN(C)c1nc(Cl)nc(N(C#N)CCOc2ccccc2)n1`, the cell number change was 23%. The AC50 under setting [2] was 2.59 µM [rising, full curve, poor fit]. Also, under setting [1], the AC50 was 4.61 µM [rising, full curve, poor fit].

Take `CCn1cc(-c2ccccc2)c(C(=O)O)c1-c1ccc(OC)cc1`: the cell number change is -11%. In addition, under setting [1], the AC50 is 0.461 µM [falling, partial curve, poor fit].

Take `Cc1cc(C)n2nc(/C(C#N)=C/c3ccccn3)c(C#N)c2n1`: the cell number change came out at 10.7%. In addition, the concentration at half-maximal activity (AC50) under setting [2] was 6.51 µM [rising, single point]. In addition, the AC50 under setting [1] is 6.51 µM [rising, single point].

Turning to `O=C(CCCn1c(=S)[nH]c2ccccc2c1=O)N1CCN(c2cccc(Cl)c2)CC1`, the cell number change worked out at 10.8%. The AC50 under setting [1] is 32.6 µM [falling, single point].

With `CCc1cccc(NC(=S)Nc2cccc3ccccc23)c1`, the cell number change was 48.9%. For the same molecule, the AC50 under setting [2] is 16.4 µM [rising, partial curve, poor fit]. Moreover, the AC50 under setting [1] was 18.4 µM [rising, single point].

Take `CC(=O)Nc1ccc(NC(=O)CCSCCc2ccccn2)cc1`: the cell number change was -36.9%.

For the molecule `COc1ccc(NC(=O)Cn2c(=O)n(CC3CCCO3)c(=O)c3cc(OC)c(OC)cc32)cc1OC` (configuration not stated), the cell number change came to 16.8%. Under setting [1], the AC50 is 29.1 µM [rising, single point].

On to `CNS(=O)(=O)c1cc(O)c2c(S(=O)(=O)NC)cccc2c1`, for which the cell number change is 4.74%. Moreover, the AC50 under setting [1] was 18.4 µM [falling, partial curve].

With `O=C(NCc1cccnc1)c1ccc(COc2ccccc2Br)o1`, the AC50 under setting [1] was 4.11 µM [rising, partial curve].

Turning to `N#Cc1ccc(COC(=O)c2cnc3ccccc3n2)cc1`, the AC50 under setting [1] was 29.1 µM [rising, single point].

Turning to `Cn1ccnc1SCC(=O)NC1(C#N)CCCCC1`, the cell number change amounted to 0.5%.

For `Cc1ccc(N2C(=O)c3cccc4c(Oc5ccccc5[N+](=O)[O-])ccc(c34)C2=O)c(C)c1`, the cell number change was -28.6%. The AC50 under setting [1] was 18.4 µM [rising, single point].

Regarding `COC(=O)c1c(-c2ccc(Br)cc2)csc1NC(=O)Cc1ccc(OC)c(OC)c1`, the cell number change is -14.6%. Under setting [1], the AC50 was 4.61 µM [rising, partial curve].

With `O=C(c1ccccc1)N1CCN(C(=S)NCc2ccc3c(c2)OCO3)CC1`, the cell number change came to 19.7%. Further, the AC50 under setting [1] is 0.259 µM [rising, full curve, poor fit].

With `O=C(NCc1ccccc1)C(Cc1ccccc1)NS(=O)(=O)c1cccc2nsnc12` (configuration not stated), the AC50 under setting [1] is 0.103 µM [rising, full curve, poor fit].

With `O=C(Nc1ccc(Oc2ccc(NC(=O)C3CCCO3)cc2)cc1)C1CCCO1` (configuration not stated), the cell number change amounted to 4.33%.

Regarding `Cc1ccsc1C(=O)NCCc1c[nH]c2ccccc12`, the cell number change came out at 19.9%. Besides, the AC50 under setting [1] is 1.3 µM [rising, partial curve, poor fit].

Regarding `Cc1ccc(C(=O)Nc2cccc(Oc3ccccc3)c2)o1`, the cell number change is 127%. In addition, under setting [2], the AC50 is 5.17 µM [rising, partial curve]. Also, under setting [1], the AC50 is 2.91 µM [rising, full curve].

Turning to `O=C(NC(=O)N1CCCCC1)c1ccc(Cl)cc1`, the cell number change turned out to be 14.4%. The half-maximal activity concentration (AC50) under setting [1] is 18.4 µM [rising, single point].

On to `Cc1csc(NC(=O)CSc2ncn(-c3ccccc3)n2)n1`, for which the cell number change was -21%. Further, the AC50 under setting [1] is 23.1 µM [falling, single point].

Take `Nc1c(C(=O)N/N=C/c2cccnc2)oc2nc(-c3ccco3)cc(-c3ccco3)c12`: the cell number change is 14.2%. In addition, the AC50 under setting [1] is 0.651 µM [rising, full curve].

Regarding `Cc1nc(/C(N)=N/OC(=O)Cc2ccccc2)no1`, the cell number change was 48.4%. For the same molecule, the AC50 under setting [2] was 14.6 µM [rising, single point]. The half-maximal activity concentration (AC50) under setting [1] was 20.6 µM [rising, single point].

In the case of `N#CC1(c2ccccc2)CCC(NCCc2ccccc2)CC1` (configuration not stated), the cell number change was found to be 15.6%.

With `COc1ccc(CNC(=O)CN(C(=O)CCC(=O)Nc2ccccn2)c2cccc(C)c2)cc1`, the cell number change turned out to be 17.2%. Besides, the AC50 under setting [2] was 0.0411 µM [rising, full curve, poor fit]. Under setting [1], the AC50 was 4.61 µM [rising, single point].

On to `Cc1cc(C)n(CC(O)Cn2c(C)c(C)c3ccccc32)n1` (configuration not stated), for which the cell number change came to 36.8%. Besides, under setting [2], the AC50 was 14.6 µM [rising, partial curve, poor fit]. The AC50 under setting [1] is 3.66 µM [rising, partial curve, poor fit].
